# Measured values taken from PubChem BioAssay AID1487 (National Center for Advancing Translational Sciences (NCATS), 2009).
# This is one part of the list. The main result of the screen is listed elsewhere. These columns were measured beside it and carry no call. Compounds called inactive in the main read-out are mostly missing here. Words in brackets tell the shape of the fitted curve; partial curves, single points and poor fits give uncertain potencies.
# Experiment: qHTS Assay for Modulators of Lamin A Splicing
# Conditions: HeLa LMNA splicing GFP/RFP minigene ratio, 48 h
# Procedure, shortened: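 Read-out is the ratio of GFP to DsRed2 object intensity, acquired by 488 nm laser-scanning cytometry on HeLa lamin A-EGFP minigene reporter cells. Compound incubation 48 hrs at 37 °C in Opti-MEM with 2% FBS; DMSO 0.5% final.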
# [1] = measured here: RFP viability control channel
# [2] = measured here: GFP splicing reporter channel
Structure (SMILES),AC50 [1],AC50 [2]
CN(CCC#N)C(=O)COC(=O)c1ccccc1C(=O)c1ccc(Cl)c([N+](=O)[O-])c1,"0.0316 µM [falling, full curve, poor fit]",
CCOc1cccc(CC(=O)NCc2ccc3c(c2)CCN3C(C)=O)c1OCC,"11.2 µM [falling, partial curve, poor fit]",
CC(C)C(=O)Nc1ccc(C(=O)N/N=C/c2cc(Br)cc(Br)c2O)cc1,"15.8 µM [falling, partial curve]","35.5 µM [falling, single point]"
CCc1nc(SCC(=O)NNC(=O)C2CCCCC2)c2ccccc2n1,,"0.501 µM [falling, single point]"
CN(Cc1ccccc1)c1nc(CN2CCOCC2)nc2scc(-c3ccccc3)c12,"7.08 µM [rising, single point]",
Cc1cccc(CNc2ncnc3ccc(-c4cccc(NS(C)(=O)=O)c4)cc23)c1,"17.8 µM [falling, partial curve]","17.8 µM [falling, partial curve]"
C/C(CC(=O)Nc1ccc(Cl)c(Cl)c1)=N\NC(N)=S,"35.5 µM [falling, single point]",
Cc1cccc(C(=O)c2c(N)sc3c2CCC(C)C3)c1 (centres undefined),"25.1 µM [rising, single point]",
COc1cc(CC(=O)OCC(=O)Nc2sccc2C(N)=O)cc(OC)c1OC,,"14.1 µM [falling, partial curve]"
COc1ccc(-c2cc(-c3c(O)c(OC)c4occc4c3OC)[nH]n2)cc1,"14.1 µM [rising, single point]","17.8 µM [rising, partial curve, poor fit]"
COCCNS(=O)(=O)c1ccc(-c2ccc(S(=O)(=O)NCCOC)cc2)cc1,"0.501 µM [falling, full curve]",
CCN(CC)S(=O)(=O)c1ccc(NC(=O)c2ccc(N(C)S(C)(=O)=O)cc2)cc1,"6.31 µM [rising, full curve]","6.31 µM [rising, partial curve]"
C=CCCCCCCCCC(=O)O,"0.000794 µM [rising, full curve, poor fit]","0.00126 µM [rising, full curve, poor fit]"
CCCOc1cccc(NC(=O)c2c(-c3ccccc3)noc2C)c1,"35.5 µM [rising, single point]",
N#Cc1ccccc1NC(=O)C(=O)NCCc1csc2nc(-c3cccc(F)c3)nn12,"1.12 µM [falling, full curve, poor fit]",
Cc1ccc2nc(Nc3nc(CSc4nnc(C)s4)cc(=O)[nH]3)nc(C)c2c1,"35.5 µM [falling, single point]","15.8 µM [falling, single point]"
C=CCn1c(C)cc(C2=NNC(=NCC)SC2)c1C,"17.8 µM [rising, partial curve, poor fit]","7.08 µM [rising, partial curve, poor fit]"
CCN(CC)c1ncnc2c1ncn2Cc1c(Cl)cccc1Cl,"35.5 µM [rising, single point]",

Structure (SMILES),AC50 [1],AC50 [2]
CCC1Oc2ccc(C)cc2N(Cc2cccc(C)c2)C1=O (centres undefined),"7.08 µM [rising, partial curve, poor fit]",
Cc1ccc(C(=O)Oc2ccc(Cl)c3cccnc23)cc1[N+](=O)[O-],"5.62 µM [falling, single point]","3.16 µM [falling, single point]"
O=C(Nc1ccc2c(c1)OCCO2)c1ccc(Br)c(S(=O)(=O)N2CCOCC2)c1,"20 µM [rising, partial curve, poor fit]",
CNC(=O)CSc1nnnn1-c1ccc(C)cc1C,"0.891 µM [rising, single point]",
CCOCCc1nn2c(=O)cc(COC(=O)Cc3ccccc3)nc2s1,"0.316 µM [falling, full curve, poor fit]","0.282 µM [falling, full curve, poor fit]"
Cc1cccc(C(=O)NC(=S)NNC(=O)COc2c(C)cccc2C)c1,"31.6 µM [rising, single point]","35.5 µM [rising, single point]"
O=C(CSc1ccccc1)Nc1nc2ccccc2[nH]1,"35.5 µM [rising, single point]",
COc1cccc(/C=N/NC(=O)c2ccc(CN3c4cccc5cccc(c45)S3(=O)=O)cc2)c1,"20 µM [rising, single point]",
COc1ccc2occ(C(=O)c3coc4ccc(O)c(CN(C)C)c34)c2c1,"17.8 µM [rising, single point]","35.5 µM [rising, single point]"
COc1cccc(CNC(=O)CCC2CCCN(C3CCOCC3)C2)c1 (centres undefined),,"0.0224 µM [rising, full curve]"
COc1ccc(C2NC(=S)NC3=C2CCc2ccccc23)cc1OC (centres undefined),"8.91 µM [rising, partial curve]",
C/C(=N/NS(=O)(=O)c1ccccc1)c1ccc(Cl)cc1,"15.8 µM [falling, partial curve, poor fit]",
CC(=O)N1CCN(C2=NC(=O)/C(=C\c3cccs3)S2)CC1,"15.8 µM [falling, single point]","0.141 µM [falling, partial curve, poor fit]"
Cc1c(O)cc2n(c1=O)-c1ccc(Cl)cc1C2(C)C,"12.6 µM [rising, partial curve]",
COc1ccc(NS(=O)(=O)c2c(F)cc(F)c(Cl)c2F)cc1S(=O)(=O)N1CCCCC1,"12.6 µM [rising, partial curve]",
COc1ccc(-c2csc(Nc3ccc(S(=O)(=O)Nc4cc(OC)nc(OC)n4)cc3)n2)cc1,"22.4 µM [rising, partial curve]","15.8 µM [rising, single point]"
CC(=O)CSc1ncnc2sc3c(c12)CCC(C)C3 (centres undefined),"35.5 µM [rising, partial curve, poor fit]","35.5 µM [rising, partial curve, poor fit]"

# Record cards (already shown):
# COc1ccc2occ(C(=O)c3coc4ccc(O)c(CN(C)C)c34)c2c1 in the list: AC50 [1]: 17.8 µM [rising, single point]; AC50 [2]: 35.5 µM [rising, single point]
# COc1ccc(C2NC(=S)NC3=C2CCc2ccccc23)cc1OC (centres undefined) in the list: AC50 [1]: 8.91 µM [rising, partial curve]
